Six molecules from PMC9809944 can be followed below.

Chains of the proteins cited; added tags and fusions are not shown. Residues count along the entry.
UniProt Q8K3Z9: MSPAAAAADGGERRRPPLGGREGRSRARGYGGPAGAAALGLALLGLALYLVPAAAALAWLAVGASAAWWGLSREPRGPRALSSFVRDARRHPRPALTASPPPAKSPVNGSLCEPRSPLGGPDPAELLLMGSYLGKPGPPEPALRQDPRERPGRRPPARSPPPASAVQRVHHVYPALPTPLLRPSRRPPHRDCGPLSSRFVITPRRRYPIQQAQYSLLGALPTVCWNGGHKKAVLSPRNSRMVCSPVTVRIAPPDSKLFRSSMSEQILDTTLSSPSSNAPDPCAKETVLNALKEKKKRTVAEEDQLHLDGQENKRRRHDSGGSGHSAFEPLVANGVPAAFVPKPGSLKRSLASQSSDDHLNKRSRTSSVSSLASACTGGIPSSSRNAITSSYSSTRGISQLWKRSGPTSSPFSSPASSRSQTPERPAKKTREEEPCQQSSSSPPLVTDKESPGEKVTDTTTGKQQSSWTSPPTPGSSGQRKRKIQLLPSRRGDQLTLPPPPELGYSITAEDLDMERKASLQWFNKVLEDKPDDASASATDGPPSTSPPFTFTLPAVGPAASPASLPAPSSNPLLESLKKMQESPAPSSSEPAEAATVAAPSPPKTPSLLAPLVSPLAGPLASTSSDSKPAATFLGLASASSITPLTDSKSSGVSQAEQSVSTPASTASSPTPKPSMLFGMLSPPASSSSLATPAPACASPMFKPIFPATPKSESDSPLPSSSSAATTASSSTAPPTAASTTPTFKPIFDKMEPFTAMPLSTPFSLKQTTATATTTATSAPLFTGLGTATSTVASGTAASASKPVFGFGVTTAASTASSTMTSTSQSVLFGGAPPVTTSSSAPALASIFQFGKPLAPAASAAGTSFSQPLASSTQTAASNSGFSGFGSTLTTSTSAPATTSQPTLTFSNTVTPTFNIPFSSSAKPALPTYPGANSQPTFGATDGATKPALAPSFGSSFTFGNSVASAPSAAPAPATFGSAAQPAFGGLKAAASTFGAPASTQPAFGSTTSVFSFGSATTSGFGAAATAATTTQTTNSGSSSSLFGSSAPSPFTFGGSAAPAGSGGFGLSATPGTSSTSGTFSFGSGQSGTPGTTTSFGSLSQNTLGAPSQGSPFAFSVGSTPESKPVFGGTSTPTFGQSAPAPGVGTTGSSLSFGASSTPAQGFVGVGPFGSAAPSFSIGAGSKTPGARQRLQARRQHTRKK
UniProt P20029, residues 20-655: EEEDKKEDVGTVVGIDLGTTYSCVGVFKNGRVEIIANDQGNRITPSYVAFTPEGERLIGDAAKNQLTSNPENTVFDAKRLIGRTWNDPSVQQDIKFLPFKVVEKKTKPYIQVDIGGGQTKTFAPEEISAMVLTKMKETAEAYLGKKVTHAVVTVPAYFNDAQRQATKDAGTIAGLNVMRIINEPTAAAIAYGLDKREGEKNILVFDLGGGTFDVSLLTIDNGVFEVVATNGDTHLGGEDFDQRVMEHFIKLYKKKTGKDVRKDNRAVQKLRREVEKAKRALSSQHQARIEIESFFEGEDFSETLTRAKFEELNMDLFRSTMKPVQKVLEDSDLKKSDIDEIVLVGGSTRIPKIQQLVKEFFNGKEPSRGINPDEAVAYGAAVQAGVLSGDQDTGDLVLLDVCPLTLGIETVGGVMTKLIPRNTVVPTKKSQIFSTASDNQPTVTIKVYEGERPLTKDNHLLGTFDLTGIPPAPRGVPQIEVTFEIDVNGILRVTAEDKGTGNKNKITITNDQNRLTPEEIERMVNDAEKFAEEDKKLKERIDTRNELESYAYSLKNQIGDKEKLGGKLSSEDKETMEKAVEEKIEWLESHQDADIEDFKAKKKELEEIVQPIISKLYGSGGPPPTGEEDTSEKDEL
UniProt P70168: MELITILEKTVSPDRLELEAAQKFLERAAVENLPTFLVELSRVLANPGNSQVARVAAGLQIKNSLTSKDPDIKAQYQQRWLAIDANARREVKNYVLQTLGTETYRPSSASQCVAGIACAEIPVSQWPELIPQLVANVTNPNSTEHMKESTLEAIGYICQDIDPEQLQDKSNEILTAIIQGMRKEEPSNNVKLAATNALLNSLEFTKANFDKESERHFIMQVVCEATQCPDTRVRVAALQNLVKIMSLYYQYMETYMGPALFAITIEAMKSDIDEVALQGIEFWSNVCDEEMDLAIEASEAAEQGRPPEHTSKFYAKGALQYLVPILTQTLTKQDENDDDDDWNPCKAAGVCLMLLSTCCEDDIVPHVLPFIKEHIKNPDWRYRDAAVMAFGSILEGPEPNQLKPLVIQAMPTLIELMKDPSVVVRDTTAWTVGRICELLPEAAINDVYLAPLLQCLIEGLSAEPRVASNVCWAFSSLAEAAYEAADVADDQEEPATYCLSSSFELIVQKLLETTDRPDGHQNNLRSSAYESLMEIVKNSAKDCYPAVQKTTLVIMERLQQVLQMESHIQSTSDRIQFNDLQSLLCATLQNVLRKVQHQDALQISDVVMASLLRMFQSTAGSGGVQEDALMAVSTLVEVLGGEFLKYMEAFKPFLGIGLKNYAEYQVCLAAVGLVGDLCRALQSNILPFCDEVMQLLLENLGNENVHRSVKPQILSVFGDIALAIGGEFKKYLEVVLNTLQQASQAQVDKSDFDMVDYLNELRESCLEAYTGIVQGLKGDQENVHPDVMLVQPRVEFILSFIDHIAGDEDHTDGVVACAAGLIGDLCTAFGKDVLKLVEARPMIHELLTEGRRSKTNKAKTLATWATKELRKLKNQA

Results are given in words; binding and its absence hold for the method and conditions named. For part of these data: Binding seen in cells or lysates may run through a third protein. Some binding calls cover weakened binding; strength is not graded here.

For assay [1], the target named is SIGMAR1/Sigma-1 receptor-EYFP (mouse) (UniProt O55242). Nature of the assay: co-IP; cells transiently transfected (20-24 h) with SIGMAR1-EYFP, treated with pridopidine 0, 0.5, 1 or 5 µM; procedure as the immunoprecipitation method; HRP-conjugated secondary antibody; bands normalised to SIGMAR1-YFP; pridopidine lowered the HSPA5 association (~50% dissociation at 0.5 and 1 µM, ~30% at 5 µM) and raised the POM121 association at 0.5 and 1 µM.

The target in assay [2] is SIGMAR1/Sigma-1 receptor-GFP (mouse) (UniProt O55242). Nature of the assay: co-IP; NSC34 cells co-expressing POM121-MYC/DDK and SIGMAR1-GFP; immunoprecipitating antibody not named in the legend; IP lysis buffer 50 mM NaCl, 0.5% Nonidet P-40, 10 mM Tris-HCl pH 8.0; with and without POM121-MYC/DDK overexpression.
For assay [3], the target named is POM121 (nuclear pore membrane protein 121), endogenous (mouse (endogenous in NSC34)) (UniProt Q8K3Z9). The assay can be described thus: co-IP; immunoprecipitation with the POM121 antibody from NSC34 lysate, all proteins endogenous; IP lysis buffer 50 mM NaCl, 0.5% Nonidet P-40, 10 mM Tris-HCl pH 8.0.
Assay [4] deals with HA-SIGMAR1/Sigma-1 receptor (mouse) (UniProt O55242). Nature of the assay: co-IP; HA antibody used to pull down HA-SIGMAR1 from lysates of transfected NSC34 cells; IP lysis buffer 50 mM NaCl, 0.5% Nonidet P-40, 10 mM Tris-HCl pH 8.0; protein-A/G agarose, 4°C; control IgG; also done after overnight transfection with GFP-(G4C2)31 RNA repeats (decreased association).
The target in assay [5] is T1, SIGMAR1/Sigma-1 receptor, endogenous (mouse (endogenous in NSC34)), O55242.
T1 chain: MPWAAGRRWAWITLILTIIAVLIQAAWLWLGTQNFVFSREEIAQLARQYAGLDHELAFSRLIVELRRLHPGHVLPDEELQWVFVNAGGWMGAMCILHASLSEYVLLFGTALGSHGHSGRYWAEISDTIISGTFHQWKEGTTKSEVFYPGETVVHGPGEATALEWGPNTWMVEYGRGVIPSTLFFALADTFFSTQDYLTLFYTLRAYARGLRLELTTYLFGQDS
Nature of the assay: native gel or EMSA; NSC34 cells pretreated with pridopidine for 1 h; lysate (25 µg) on NativePAGE Novex 4-16% Bis-Tris gel, immunoblot with SIGMAR1 antibody B5; pridopidine reduced oligomerization at 1 µM but not at 5 µM. As to conditions: remark: other sources report otherwise.

As for “HSPA5/BiP (heat shock protein 5), endogenous (from UniProt P20029 20-655)”, the binding entry in assay [1] is given as “binds”.

Consider “KPNB1/importinβ1, endogenous (from UniProt P70168 1-876)”, for which the binding result in assay [2], in assay [3] and in assay [4] was “binds” each time.

Regarding “POM121 (nuclear pore membrane protein 121), endogenous (from UniProt Q8K3Z9 1-1200)”, the binding result in assay [1] and in assay [4] was “binds” in each case.

Regarding “POM121-MYC/DDK (from UniProt Q8K3Z9 1-1200)”, the binding result in assay [2] is “binds”.

For the molecule “SIGMAR1/Sigma-1 receptor, endogenous (from UniProt O55242-1 1-223)”, the binding result in assay [3] is on record as “binds”.

B1: SIGMAR1/Sigma-1 receptor, endogenous, O55242-1 1-223 (protein)
chain: T1 chain
As to B1, the binding result in assay [5] is recorded as “binds”.
